Data published in paper PMC12431657, “Discovery and mechanistic insights of dibenzoylmethane as a broad spectrum inhibitor of coronavirus” (PLOS Pathogens, 2025).
Like-named read-outs stand apart in the source and are kept apart here. In all, about 3,300 compounds went through this assay and about 95 (3%) showed an effect of 50% or more. Some of the results follow.

System: HCoV-229E
Parameters: species or system Huh-7; HTS, protection from HCoV-229E induced cell death, luminescent cell viability (CellCounting-Lite 2.0), inhibition rate
Conditions: 24 h post infection, 1 h compound pre-incubation, 10 µM, inhibitor

SMILES | 229E Inhibition rate (229E Inhibition rate, 24 h) [%] | 229E Inhibition rate [%]
COc1cc([C@H]2Oc3cc([C@H]4Oc5cc(O)cc(O)c5C(=O)[C@@H]4O)ccc3O[C@@H]2CO)ccc1O [Silibinin] | 12.8 | –
COC1=CC(=O)O[C@@H](/C=C/c2ccc3c(c2)OCO3)C1 [Methylsticin] | – | 37.7
C[C@@H]1O[C@@H](O[C@@H]2[C@@H](O)[C@H](OCCc3ccc(O)c(O)c3)O[C@H](CO[C@@H]3O[C@H](CO)[C@@H](O)[C@H](O)[C@H]3O)[C@H]2OC(=O)/C=C/c2ccc(O)c(O)c2)[C@H](O)[C@H](O)[C@H]1O [Echinacoside] | – | 3.3
COc1ccc(C(C)=O)c(O)c1 [Paeonol] | – | 22.7
C[C@H]1CC[C@@]2(OC1)O[C@H]1C[C@H]3[C@@H]4CC[C@@H]5C[C@@H](O[C@@H]6O[C@H](CO)[C@H](O)[C@H](O)[C@H]6O[C@@H]6O[C@H](CO)[C@@H](O)[C@H](O)[C@H]6O)CC[C@]5(C)[C@H]4CC[C@]3(C)[C@H]1[C@@H]2C [Timosaponin AIII] | – | 1.2
O=C(O)c1ccc(O)cc1 [4-Hydroxybenzoic acid] | – | 35.4
COc1c(O)cc2c(c1O)[C@@H]1O[C@H](CO)[C@@H](O)[C@H](O)[C@H]1OC2=O [Bergenin] | – | 7.1
C/C=C(\C)C(=O)O[C@@H]1[C@@H](OC(C)=O)[C@]2(C)[C@H](C(C)=O)CC[C@@]23O[C@]32CC[C@H]3C[C@@H](O[C@H]4C[C@@H](OC)[C@H](O[C@@H]5O[C@H](C)[C@@H](O)[C@@H](OC)[C@H]5O)[C@@H](C)O4)CC[C@]3(C)[C@@H]12 [Tenacissoside G] | – | 13.2
C=C1CCC[C@]2(C)CC[C@@H](C(C)(C)O)C[C@@H]12 [Beta-Eudesmol] | – | 19.6
COc1ccc2c(c1OC)CN1CCc3cc4c(cc3C1C2)OCO4 (centres unmarked) [Tetrahydroberberine] | – | 9
CC(=O)OCc1ccccc1 [Benzyl acetate] | – | 50.3
COc1ccc2c(c1OC)CC1c3c(cc4c(c3-2)OCO4)CCN1C (centres unmarked) [Crebanine] | – | 62.7
OC[C@@H](O)[C@H](O)[C@H](O)[C@@H](O)CO [Dulcite] | – | 15.3
CC1=CC(=O)CC(C)(C)[C@@]1(O)/C=C/C(C)=C\C(=O)O [Abscisic acid] | 21.6 | –
Oc1cc(O)c2c(c1)O[C@H](c1ccc(O)c(O)c1)[C@@H](O)C2 [(+)-Catechin hydrate] | 6.4 | –
C1CNCCNCCNCCN1 [Cyclen] | – | 11.2
Cc1cc2nc[nH]c2cc1C [5,6-Dimethyl-1H-benzo[d]imidazole] | – | 19.9

Exported field by field: part of the list above.
C/C=C(\C)C(=O)O[C@@H]1[C@@H](OC(C)=O)[C@]2(C)[C@H](C(C)=O)CC[C@@]23O[C@]32CC[C@H]3C[C@@H](O[C@H]4C[C@@H](OC)[C@H](O[C@@H]5O[C@H](C)[C@@H](O)[C@@H](OC)[C@H]5O)[C@@H](C)O4)CC[C@]3(C)[C@@H]12 [Tenacissoside G]
  229E Inhibition rate [%]: 13.2
C=C1CCC[C@]2(C)CC[C@@H](C(C)(C)O)C[C@@H]12 [Beta-Eudesmol]
  229E Inhibition rate [%]: 19.6
